Series [1] can be described thus: Photosensitivity test: minimum exposure amount to form the resist pattern in an exemplary photoresist. Particulars: 20 μm photoresist coating, 1 part by mass photoinitiator, line i exposure, 10 μm line pattern, lower value = higher photosensitivity.
Series [2] can be described thus: Acid production rate test (UV irradiation of acetonitrile solution, KOH titration). Conditions: 0.02 mmol/g acetonitrile solution, 200 mj/cm^2 cumulative energy at 0.8 mw/cm^2, ultraviolet lamp FL10BL, titrated with 0.05N KOH in ethanol.

The record followed here is patent US11746085B2, “Triphenylsulfonium salt compound, and uses thereof” (Changzhou Tronly Advanced Electronic Materials Co., Ltd., priority 2018, dated 2023).

Regarding `Cc1ccc([S+](c2ccccc2)c2ccc(Sc3ccc([S+](c4ccccc4)c4ccc(C)c(C(F)(F)F)c4)cc3)cc2)cc1C(F)(F)F` (stereo not shown) [Compound C-20], the Minimum exposure amount in series [1] (Table 4) amounted to 170 mj/cm^2. This molecule had an Acid production rate in series [2] (Table 4) of 75%.
Molecule `COc1ccc([S+](c2ccc(C(C)=O)cc2)c2ccc(C(C)=O)cc2)cc1F` [Compound A-8] came in with a Minimum exposure amount in series [1] (Table 3) of 170 mj/cm^2. Besides, the Acid production rate in series [2] (Table 3) is recorded as 75%.
The like results for `Cc1ccc([S+](c2ccc(OCCO)cc2)c2ccc(C)c(F)c2)cc1F` [Compound A-9] were, in that order, 100 mj/cm^2 and 86%.
The like results for `COc1ccc([S+](c2ccc(C)c(F)c2)c2ccc(C)c(F)c2)cc1` [Compound A-1] were, in that order, 120 mj/cm^2 and 85%.
In the case of `Cc1ccc([S+](c2ccccc2)c2ccc(Sc3ccc([S+](c4ccccc4)c4ccc(C)c(F)c4)cc3)cc2)cc1F` (stereo not shown) [Compound C-17], in series [1] (Table 4), the Minimum exposure amount was 180 mj/cm^2. In series [2] (Table 4), this molecule came in with an Acid production rate of 74%.
Take `Fc1cc([S+](c2ccc(Sc3ccc([S+](c4ccc(Cc5ccccc5)c(F)c4)c4ccc(Cc5ccccc5)c(F)c4)cc3)cc2)c2ccc(Cc3ccccc3)c(F)c2)ccc1Cc1ccccc1` [Compound C-16]: the Minimum exposure amount in series [1] (Table 4) stood at 150 mj/cm^2. The molecule further gave an Acid production rate in series [2] (Table 4) of 77%.
Taken in the same sequence, the figures for `Cc1ccc([S+](c2ccc(-c3ccc([S+](c4ccc(C)c(C#N)c4)c4ccc(C)c(C#N)c4)cc3)cc2)c2ccc(C)c(C#N)c2)cc1C#N` [Compound C-11] were 140 mj/cm^2 and 78%.
In the case of `Cc1ccc([S+](c2ccc(Cc3ccccc3)cc2)c2ccc(C)c(F)c2)cc1F` [Compound A-14], in series [1] (Table 3), the Minimum exposure amount was determined as 110 mj/cm^2. The same molecule came in with an Acid production rate in series [2] (Table 3) of 85%.
Turning to `Cc1ccc([S+](c2ccc(Sc3ccc([S+](c4ccc(C)c([N+](=O)[O-])c4)c4ccc(C)c([N+](=O)[O-])c4)cc3)cc2)c2ccc(C)c([N+](=O)[O-])c2)cc1[N+](=O)[O-]` [Compound C-3], the Minimum exposure amount in series [1] (Table 4) amounted to 90 mj/cm^2. Moreover, the Acid production rate in series [2] (Table 4) was 89%.
Take `Cc1ccc([S+](c2ccc(C)c(F)c2)c2ccc3c(c2)Cc2ccccc2-3)cc1F` [Compound A-22]: the Minimum exposure amount in series [1] (Table 3) is reported as 160 mj/cm^2. In series [2] (Table 3), this molecule yielded an Acid production rate of 78%.
`Cc1ccc([S+](c2ccccc2)c2ccc(/C=C/c3ccccc3)cc2)cc1F` (stereo not shown) [Compound A-38] displayed a Minimum exposure amount in series [1] (Table 3) of 180 mj/cm^2. This molecule displayed an Acid production rate in series [2] (Table 3) of 74%.
The molecule `Cc1ccc([S+](c2ccc(Sc3ccccc3)cc2)c2ccc(C)c(F)c2)cc1F` [Compound A-12] showed a Minimum exposure amount in series [1] (Table 3) of 110 mj/cm^2. For the same molecule, in series [2] (Table 3), the Acid production rate is reported as 88%.
Molecule `Cc1ccc([S+](c2ccc(Cc3ccc([S+](c4ccc(C)c([N+](=O)[O-])c4)c4ccc(C)c([N+](=O)[O-])c4)cc3)cc2)c2ccc(C)c([N+](=O)[O-])c2)cc1[N+](=O)[O-]` [Compound C-9] returned a Minimum exposure amount in series [1] (Table 4) of 120 mj/cm^2. This molecule returned an Acid production rate in series [2] (Table 4) of 82%.
`Fc1ccc([S+](c2ccccc2)c2ccc(Sc3ccccc3)cc2)cc1F` (stereo not shown) [Compound A-20] returned a Minimum exposure amount in series [1] (Table 3) of 170 mj/cm^2. Also, the Acid production rate in series [2] (Table 3) was found to be 75%.
`Cc1ccc([S+](c2ccccc2)c2ccc(-c3ccccc3)cc2)cc1F` (stereo not shown) [Compound A-21] returned a Minimum exposure amount in series [1] (Table 3) of 200 mj/cm^2. This molecule also had an Acid production rate in series [2] (Table 3) of 70%.
The like results for `Cc1ccc([S+](c2ccccc2)c2ccccc2)cc1F` [Compound A-4] were, in that order, 180 mj/cm^2 and 72%.
Turning to `CCc1ccc([S+](c2ccc(OC)cc2)c2ccc(CC)c(C(F)(F)F)c2)cc1C(F)(F)F` [Compound A-31], the Minimum exposure amount in series [1] (Table 3) turned out to be 180 mj/cm^2. In series [2] (Table 3), this molecule registered an Acid production rate of 76%.
